PMC10480186
These are yes or no findings as the source states them, for the method shown. Some results given as binding are weak or reduced against the parent protein; the word gives no strength. Blank lines part the entries; values can stand above or below the substance they belong to.

Chains of the proteins cited; added tags and fusions are not shown. Lines headed by an entry give the natural chain unless they say otherwise; changes in a name come on top. A line that says so, or that is headed by a name, gives the form on record, which may keep a tag or linker. Residues count along the entry.
DNAJA2ΔCD (O60884, residues 1-360): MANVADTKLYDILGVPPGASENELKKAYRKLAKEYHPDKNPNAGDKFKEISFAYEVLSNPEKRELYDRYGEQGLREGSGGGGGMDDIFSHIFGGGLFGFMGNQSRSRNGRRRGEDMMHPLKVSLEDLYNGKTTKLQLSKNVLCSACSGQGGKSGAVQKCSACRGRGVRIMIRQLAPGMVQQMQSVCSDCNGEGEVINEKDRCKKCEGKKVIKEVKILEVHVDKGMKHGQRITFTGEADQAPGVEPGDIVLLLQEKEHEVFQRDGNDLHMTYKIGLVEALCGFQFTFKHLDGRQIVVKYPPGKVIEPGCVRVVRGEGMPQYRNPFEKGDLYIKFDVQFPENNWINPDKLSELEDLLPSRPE
DNAJA2ΔZFLR (O60884, form named): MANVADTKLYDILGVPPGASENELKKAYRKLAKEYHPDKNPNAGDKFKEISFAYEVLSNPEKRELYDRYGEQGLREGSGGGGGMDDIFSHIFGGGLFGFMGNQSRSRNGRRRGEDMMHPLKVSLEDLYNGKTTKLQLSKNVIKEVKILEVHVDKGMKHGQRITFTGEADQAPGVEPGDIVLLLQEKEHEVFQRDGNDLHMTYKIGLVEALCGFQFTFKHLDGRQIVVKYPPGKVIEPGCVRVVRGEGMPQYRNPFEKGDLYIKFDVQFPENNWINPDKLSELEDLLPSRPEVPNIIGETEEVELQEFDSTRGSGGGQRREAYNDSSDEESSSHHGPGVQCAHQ
UniProt P11411: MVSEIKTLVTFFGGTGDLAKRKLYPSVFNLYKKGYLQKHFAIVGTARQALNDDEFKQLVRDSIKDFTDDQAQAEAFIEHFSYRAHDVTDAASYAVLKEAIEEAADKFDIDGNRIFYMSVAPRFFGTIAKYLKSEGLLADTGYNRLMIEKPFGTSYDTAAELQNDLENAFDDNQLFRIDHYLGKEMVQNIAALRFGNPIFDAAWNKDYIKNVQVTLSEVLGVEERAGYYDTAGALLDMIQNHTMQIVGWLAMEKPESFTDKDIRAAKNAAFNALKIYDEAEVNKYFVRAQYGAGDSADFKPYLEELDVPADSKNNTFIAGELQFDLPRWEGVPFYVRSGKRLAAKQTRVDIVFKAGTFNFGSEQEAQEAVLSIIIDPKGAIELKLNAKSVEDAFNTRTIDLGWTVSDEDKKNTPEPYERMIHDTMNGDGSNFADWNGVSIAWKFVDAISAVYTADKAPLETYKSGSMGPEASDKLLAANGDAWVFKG
UniProt P25685: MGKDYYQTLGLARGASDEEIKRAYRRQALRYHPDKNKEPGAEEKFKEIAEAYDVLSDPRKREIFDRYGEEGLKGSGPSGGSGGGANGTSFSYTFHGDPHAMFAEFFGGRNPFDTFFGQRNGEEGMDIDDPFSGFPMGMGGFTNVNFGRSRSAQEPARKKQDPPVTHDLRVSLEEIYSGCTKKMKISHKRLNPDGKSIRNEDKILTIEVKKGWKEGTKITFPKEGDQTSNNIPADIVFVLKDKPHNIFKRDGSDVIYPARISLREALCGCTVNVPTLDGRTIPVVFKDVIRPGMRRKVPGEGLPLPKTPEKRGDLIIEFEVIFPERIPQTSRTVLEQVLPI

Columns and labels:
DNAJA2ΔCD (human) = DNAJA2ΔCD (human) (UniProt O60884); assay: negative-stain electron microscopy; samples on carbon-coated grids, 2% uranyl acetate; 15 µM protein; tubular oligomers of dimers; both purified
DNAJA2ΔZFLR (human) = DNAJA2ΔZFLR (human) (UniProt O60884); assay: as above
[1] = biological target: Glucose-6-phosphate dehydrogenase (G6PDH) from Leuconostoc mesenteroides, aggregated (Leuconostoc mesenteroides) (UniProt P11411); assay: co-sedimentation; 2 µM Hsc70, 1 µM J-domain protein (DNAJB1, DNAJA2ΔCD or DNAJA2wt), 0.4 µM Apg2, 0.4 µM aggregated or native G6PDH; pellets on SDS-PAGE, band intensities; amounts in pellets with native G6PDH subtracted; both purified

- binding (DNAJA2ΔCD (human)): binds weakly
Substance: DNAJA2ΔCD (from UniProt O60884 1-360) (domain or fragment)

- binding (DNAJA2ΔZFLR (human)): binds weakly
Substance: DNAJA2ΔZFLR (from UniProt O60884 1-412)

- binding [1]: binds
Substance: DNAJB1 (from UniProt P25685 1-340)
